These are yes or no findings as the source states them, for the method shown. Some binding calls cover weakened binding; strength is not graded here. Tags and fused reporters may be left off the sequences shown.
Key:
[1] = target: T1, human RANK-Fc [RANK AA sequence 30-212] (human) (UniProt Q9Y6Q6); assay: phage ELISA on coated RANK-Fc
T1 sequence (looked up): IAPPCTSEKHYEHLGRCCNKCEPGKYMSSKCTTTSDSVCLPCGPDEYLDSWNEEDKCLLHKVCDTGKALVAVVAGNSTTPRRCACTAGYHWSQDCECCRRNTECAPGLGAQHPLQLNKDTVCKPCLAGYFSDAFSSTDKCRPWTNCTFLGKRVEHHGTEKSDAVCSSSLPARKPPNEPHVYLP

[2] = target: T2, mouse RANK-Fc [RANK AA sequence 31-214] (mouse) (UniProt O35305); assay: phage ELISA on coated RANK-Fc
T2 sequence (looked up): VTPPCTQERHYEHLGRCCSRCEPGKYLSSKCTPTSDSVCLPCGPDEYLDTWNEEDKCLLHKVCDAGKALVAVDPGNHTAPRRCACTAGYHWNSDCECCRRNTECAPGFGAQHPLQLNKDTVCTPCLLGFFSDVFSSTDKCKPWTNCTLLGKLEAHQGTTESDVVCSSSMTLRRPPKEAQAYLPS

[3] = target: T1, human RANK-Fc [RANK AA sequence 30-212] (human); assay: competition phage ELISA on coated human RANK-Fc

Measured: binding

B1: anti-RANK phagemid R03A03 (Fab, V domains shown)
VH: EVQLVESGGGVVQPGTSLRLSCAASGFTFSSYAMHWVRQAPGKGLEWVAVVSYDGSTKSYADSMKGRFTISRDNSKNTLYLQMNSLRAEDTAVYYCAKDPALRYFDWGYFQHWGQGTLVTVSS
VL: SYELTQPPSVSVSPGQTASITCSGDKLGDKYVCWYQQKPGQSPVLVIYGDSERPSGIPERFSGSNSGNTATLTISGTRAVDEADYYCQAWDSTTPLFGGGTNLTVL
binds: all assays above
